Source: paper PMC10256725
Results are given in words; binding and its absence hold for the method and conditions named. Some binding calls cover weakened binding; strength is not graded here. Tags and fused reporters may be left off the sequences shown.

The chains behind the UniProt entries cited, without tags or fusion partners.
UniProt P39705: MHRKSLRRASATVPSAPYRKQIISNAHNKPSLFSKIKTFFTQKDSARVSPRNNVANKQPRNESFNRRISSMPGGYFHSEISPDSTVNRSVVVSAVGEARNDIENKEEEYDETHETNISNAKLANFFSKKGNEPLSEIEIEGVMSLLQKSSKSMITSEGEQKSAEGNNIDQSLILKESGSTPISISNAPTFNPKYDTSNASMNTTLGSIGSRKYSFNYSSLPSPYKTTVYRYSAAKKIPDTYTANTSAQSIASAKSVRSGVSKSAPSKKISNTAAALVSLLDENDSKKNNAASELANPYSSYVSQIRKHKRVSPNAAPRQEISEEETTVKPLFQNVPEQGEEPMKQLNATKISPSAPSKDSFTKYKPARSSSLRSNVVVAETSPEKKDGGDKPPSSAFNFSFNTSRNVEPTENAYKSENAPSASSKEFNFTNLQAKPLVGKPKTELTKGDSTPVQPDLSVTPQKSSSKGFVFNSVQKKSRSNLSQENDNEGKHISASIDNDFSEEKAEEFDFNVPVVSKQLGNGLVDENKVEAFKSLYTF
UniProt P02406: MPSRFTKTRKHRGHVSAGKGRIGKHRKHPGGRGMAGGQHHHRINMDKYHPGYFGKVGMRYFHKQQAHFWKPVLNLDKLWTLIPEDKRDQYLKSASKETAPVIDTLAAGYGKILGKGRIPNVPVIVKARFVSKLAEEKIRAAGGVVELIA

Legend:
[1] = target: T1, Kap123, C-terminally twin-StrepII-tagged (S. cerevisiae) (UniProt P40069); experiment: RIP-qPCR; high salt lysis buffer (500 mM KCl) with CHX or puromycin, DSP crosslinking; twin-StrepII Kap123 pulled down on Streptactin resin; co-purified mRNA quantified by TaqMan qPCR relative to total RNA
T1 sequence: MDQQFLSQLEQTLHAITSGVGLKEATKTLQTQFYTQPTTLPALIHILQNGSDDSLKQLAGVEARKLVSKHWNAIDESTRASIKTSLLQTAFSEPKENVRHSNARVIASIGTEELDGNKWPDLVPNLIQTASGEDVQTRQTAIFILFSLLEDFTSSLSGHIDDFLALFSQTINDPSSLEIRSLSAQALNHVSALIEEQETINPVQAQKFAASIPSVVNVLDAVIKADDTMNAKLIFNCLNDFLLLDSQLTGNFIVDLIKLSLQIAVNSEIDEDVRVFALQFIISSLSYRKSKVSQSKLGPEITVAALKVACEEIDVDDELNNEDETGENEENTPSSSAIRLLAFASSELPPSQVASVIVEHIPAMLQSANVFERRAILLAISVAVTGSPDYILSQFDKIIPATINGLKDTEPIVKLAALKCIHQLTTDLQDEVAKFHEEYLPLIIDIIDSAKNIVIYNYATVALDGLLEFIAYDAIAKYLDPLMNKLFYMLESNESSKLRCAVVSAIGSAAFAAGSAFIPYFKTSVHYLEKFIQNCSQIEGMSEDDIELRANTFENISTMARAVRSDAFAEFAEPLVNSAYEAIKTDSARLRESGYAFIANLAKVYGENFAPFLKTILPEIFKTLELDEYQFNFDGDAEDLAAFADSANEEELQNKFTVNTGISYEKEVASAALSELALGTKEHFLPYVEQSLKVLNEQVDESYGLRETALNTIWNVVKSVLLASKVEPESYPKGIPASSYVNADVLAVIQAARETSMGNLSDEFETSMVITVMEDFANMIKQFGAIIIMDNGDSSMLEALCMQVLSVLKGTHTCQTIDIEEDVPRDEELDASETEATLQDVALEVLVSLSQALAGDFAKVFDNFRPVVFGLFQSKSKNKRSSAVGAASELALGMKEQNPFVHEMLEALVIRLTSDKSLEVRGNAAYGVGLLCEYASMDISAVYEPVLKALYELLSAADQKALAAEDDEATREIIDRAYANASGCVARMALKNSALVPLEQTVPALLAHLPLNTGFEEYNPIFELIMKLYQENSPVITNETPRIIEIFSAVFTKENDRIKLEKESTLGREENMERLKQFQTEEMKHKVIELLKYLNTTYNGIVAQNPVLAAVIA

[2] = target: T1, Kap123, C-terminally twin-StrepII-tagged (S. cerevisiae); experiment: selective ribosome profiling (SeRP); lysate crosslinked with DSP, RNase I digest, ribosome-nascent chain complexes pelleted through 25% sucrose; twin-StrepII importin purified on Streptactin resin (20 mM Hepes-KOH pH 7.5, 140 mM KCl, 10 mM MgCl2, CHX, 4 °C); ribosome-protected mRNA footprints sequenced, IP/total against a no-bait wildtype; n = 4
[3] = target: T2, Sxm1, C-terminally twin-StrepII-tagged (S. cerevisiae) (UniProt Q04175); experiment: as above
T2 sequence: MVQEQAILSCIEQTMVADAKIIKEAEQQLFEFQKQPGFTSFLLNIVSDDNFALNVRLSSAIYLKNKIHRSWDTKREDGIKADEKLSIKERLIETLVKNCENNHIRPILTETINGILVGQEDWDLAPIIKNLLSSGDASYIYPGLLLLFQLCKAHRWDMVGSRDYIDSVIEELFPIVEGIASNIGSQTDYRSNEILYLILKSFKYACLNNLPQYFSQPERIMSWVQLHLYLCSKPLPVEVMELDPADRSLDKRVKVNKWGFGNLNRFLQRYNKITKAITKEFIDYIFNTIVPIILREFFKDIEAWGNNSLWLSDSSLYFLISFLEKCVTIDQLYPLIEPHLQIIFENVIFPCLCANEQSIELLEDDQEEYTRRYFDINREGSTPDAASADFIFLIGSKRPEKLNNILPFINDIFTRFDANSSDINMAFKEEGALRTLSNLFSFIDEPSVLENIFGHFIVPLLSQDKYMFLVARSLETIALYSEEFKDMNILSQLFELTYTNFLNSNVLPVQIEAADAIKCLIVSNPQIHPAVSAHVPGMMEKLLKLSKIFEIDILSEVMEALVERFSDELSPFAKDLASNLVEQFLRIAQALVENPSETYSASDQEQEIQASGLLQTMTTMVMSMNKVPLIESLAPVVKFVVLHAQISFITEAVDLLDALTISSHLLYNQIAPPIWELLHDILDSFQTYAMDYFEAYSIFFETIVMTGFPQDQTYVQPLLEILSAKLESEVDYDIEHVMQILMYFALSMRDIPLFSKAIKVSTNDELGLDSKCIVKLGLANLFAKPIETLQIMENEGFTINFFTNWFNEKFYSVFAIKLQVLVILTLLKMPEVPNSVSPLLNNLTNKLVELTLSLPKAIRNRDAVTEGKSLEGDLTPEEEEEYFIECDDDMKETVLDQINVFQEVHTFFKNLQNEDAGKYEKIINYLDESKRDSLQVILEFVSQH

Q: Which binding [1] does the source give for “nascent Nup60 (ribosome-bound nascent chain) (from UniProt P39705 1-539)” here?
A: Its binding is “binds”.

Q: What about the binding [2] of the same molecule?
A: Its binding is “binds”.

Q: Which binding [2] does the source give for “nascent Rpl28 (ribosome-bound nascent chain) (from UniProt P02406 1-149)” here?
A: Its binding is “binds”.

B1: nascent Efr3 (ribosome-bound nascent chain) (protein, UniProt Q03653 1-782)
chain: MQLSMRMMFTPKHQKLVNQCYPTGRTTDKKPKSSETSYLLYYVNSRRSKLEKVSTYLIKRSTSDLNHRRIGNIAVTLDLMNKIVLHCKENLNVFVKDFLYIMNKVLSNNNFNNDVSVVELIELAFSSICQNLDDVLCNGDMEFVQLYQNFVDLFFKIVTERIHNDDMLLKCCIDISNTNSVSSNPQLNHFVSKSVAYTISKFQERNPKFKTLSLEAALESNLGKRLSRTQTRTIGLDKAAEDNHDLSVKALQSYFNTTETDKLNLSIRTLLRCLQSTPNKELLEFVCNGIPVQLRYIVILLLVRQLSDKDKNVNPIVSLKLMSSLLVSDVSIVGLSVLDIMRKLLNFQLKNATNKEVVAQSCITMTDLNHKTYYAEQTSDMLYELLLKLKSDTVKDVEKNAVVEDIDFLVEHITQPSISLELFIDLAHYMKNHIICLFNIVETEVPSSILFSKLYSLLRELDSHGVQKEMMEEIFDKYGKMALLSGLNYFLENVSEPEYTYYSYHLQAANFLKLNDYKSQTEYKMQTRTLFTKEDLLSYYSDTGSNKYSKKGAQILLSRDNQISTSDLLSDSQVRTTPLEYKNVPNAIFSNGKAVYDNNDFAAKQNKFDNSIDDNIEEANDTVISDANAKGSIYRFVAEDARSWKTMRATAPKVSDLKKTMNEKNIPNNMKRDGSFRGSQSVKSRVTNITFLLNELKTFSDDANKIKDPDEENIVGLDKIDVARSNSLRLAPISSLSDRSSIGNRKSFLQKTATGENQNDDFKDANEDLHSLSSRGKIFSST
Q: For B1, which binding [3] is on record?
A: Its binding is “binds”.

B2: nascent Nbp1 (ribosome-bound nascent chain) (protein, UniProt P52919 1-319)
chain: MLKSVQGLWKDFFGIRDDGRKREYGSLDEVRKRSALRSRRKQMRPTGKSVLKRPRKVTDRKTEEKIRTNRRKTPKRRLTKIFQTIRDVFSNDNENMSKMQNVCGDMTRILKKRSQGRPSYMDTDTAKSRILRSDAFKRKISELKYNKQRISELRSGSSDGSSGKDRNQSLYLDREILLQRQIKKRDEKIKALESKLQSLQEALNYSNEKYRILEDLLDSSNIHPSYTKSRRTMSNLARENDEIKPLKIDLSPSPIRRTNSLFTSSPMKTYNRDGNIPEMQPLQENISPACPTPPYRSRETEKEDETLSPISVDFSSYLS
Q: Which binding [1] does the source give for B2 here?
A: The binding was “binds”.
